According to PubChem BioAssay AID504834 (National Center for Advancing Translational Sciences (NCATS), 2011):
The whole screen tested about 320,000 compounds, of which about 22,000 (6.9%) were called active. The shares of active, inactive and inconclusive entries below differ from those in the screen. The call rests on the fitted dose curve; in most records, active means well fitted inhibition curve with a large enough effect; inconclusive means small, poorly fitted or top-dose-only effect, or another doubt; inactive means no such curve, though single readings can be large or run the other way. Where the call is inconclusive, the potency comes from a doubtful curve fit.

assay: Primary qHTS for delayed death inhibitors of the malarial parasite plastid, 96 hour incubation; conditions: P. falciparum luciferase reporter growth; series mostly up to 28.7 µM; activity change, negative = inhibition: at the top concentration
Summary of the method: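 Delayed-death screen, second-generation endpoint: infected erythrocytes, 2% hematocrit, 0.05% parasitemia final; 96 hours at 37 C, 5% CO2; luciferase detection reagent; luminescence decrease equals reduced growth.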
On the % scale 0 is the no-effect control and ±100 the full control effect; potency means the concentration at half of the fitted maximal effect.

| SMILES | activity change, negative = inhibition | Potency |
| --- | --- | --- |
| O=C(CCN1C(=O)c2ccccc2S1(=O)=O)NCc1ccc(F)cc1 | inactive: 32.5% |  |
| CN(CCNC(=O)c1cccc(N2CCCC2=O)c1)Cc1ccccc1 | inactive: 44% |  |
| NNc1nc(-c2ccccc2)cs1 |  | inconclusive: 2.62 µM [inhibitor, partial curve, poor fit] |
| CN1C(=O)[C@H]2[C@@H](C3CC3)N3C(=O)CN(CC4CC4)C(=O)[C@@]3(C)[C@H]2C1=O | inactive: 4.54% |  |
| COc1ccc(N2CCN(CCNC(=O)CCCn3c(=O)[nH]c4cc(Cl)ccc4c3=O)CC2)cc1 |  | inconclusive: 14.7 µM [inhibitor, partial curve] |
| CCCOc1ccc(Cc2c(Cl)nc(SC)nc2OC)cc1 | inactive: -1.97% |  |
| COCCn1c(=O)[nH]c(=O)c2c1nc(-c1ccc(-c3ccc(Cl)cc3[N+](=O)[O-])o1)n2Cc1ccccc1 |  | active: 4.15 µM |
| CC1(C)CC(=O)C/C(=N/Nc2nc3ccccc3s2)C1 |  | inconclusive: 11.7 µM [inhibitor, single point] |
| COc1cccc(-c2ccc(NC(=O)C3CCCN(Cc4cnn(C)c4)C3)cc2)c1 (configuration not stated) |  | inconclusive: 11.7 µM [inhibitor, single point] |
| CCN(CC)S(=O)(=O)c1ccc(C)c(NC(=O)CSc2nc3ccc(C)cc3[nH]2)c1 |  | inconclusive: 11.7 µM [inhibitor, single point] |
| O=C(Cc1ccccc1F)Nc1nc(-c2cccs2)cs1 |  | inconclusive: 13.1 µM [inhibitor, single point] |
| CS(=O)(=O)c1ccc2nc(NC(=O)c3cc(-c4ccccc4)nn3-c3ccccc3)sc2c1 |  | inconclusive: 3.7 µM [inhibitor, full curve] |
| O=C1C(Cc2ccc(O)cc2)NC(=S)N1Cc1ccccc1 (configuration not stated) |  | inconclusive: 1.17 µM [inhibitor, full curve, poor fit] |
| Cc1cc(C(=O)COc2cccnc2[N+](=O)[O-])c(C)n1-c1ccccc1 | inactive: 63.8% |  |
| O=C(OCc1c(-c2ccccc2)ncc2ccccc12)c1ccc(Br)cc1 |  | inconclusive: 4.65 µM [inhibitor, single point] |
| COC(=O)CCN(C)CCC(=O)OC |  | inconclusive: 2.08 µM [inhibitor, partial curve, poor fit] |
| COc1ccc(C(=O)Nc2cccc(-c3nc4ncccc4o3)c2C)cc1 |  | inconclusive: 18.5 µM [inhibitor, single point] |
| CC(C)(C)NC[C@H](O)COc1cccc2c1CCCC2=O |  | inactive |
| CCOc1ccc(C(=O)Nc2ccc(Cl)cn2)cc1Cl |  | inconclusive: 5.22 µM [inhibitor, partial curve] |
| COc1ccccc1CNC(=O)C(C)c1ccc([N+](=O)[O-])cc1 (configuration not stated) | inactive: 11.9% [at 5.75 µM] |  |
| Fc1ccc(Sc2nc(-c3ccccc3)nnc2C(F)(F)F)cc1 |  | active: 13.1 µM |
| O=c1ccc(NS(=O)(=O)c2ccccc2)cn1Cc1ccc(Cl)c(Cl)c1 |  | inconclusive: 0.0029 µM [inhibitor, full curve, poor fit] |
| Cc1cc2cc(C(=O)N3CCc4c([nH]c5ccccc45)C3c3ccccn3)ccc2o1 (configuration not stated) |  | active: 9.28 µM |
| CCCCn1c(N)c(N(Cc2ccccc2OC)C(=O)c2ccc([N+](=O)[O-])s2)c(=O)[nH]c1=O |  | active: 9.28 µM |

Full records, looked up by structure:
Cc1cc2cc(C(=O)N3CCc4c([nH]c5ccccc45)C3c3ccccn3)ccc2o1 (configuration not stated) in the list: Potency: active: 9.28 µM
O=C(OCc1c(-c2ccccc2)ncc2ccccc12)c1ccc(Br)cc1 in the list: Potency: inconclusive: 4.65 µM [inhibitor, single point]
COc1ccccc1CNC(=O)C(C)c1ccc([N+](=O)[O-])cc1 (configuration not stated) in the list: activity change, negative = inhibition: inactive: 11.9% [at 5.75 µM]

Further records.

| SMILES | activity change, negative = inhibition | Potency |
| --- | --- | --- |
| Clc1ccccc1OCc1nn[nH]n1 | inactive: -15% |  |
| CCCC(=O)Nc1ccc2nc(SCC(=O)N3CCCC3)sc2c1 | inactive: 35.5% |  |
| CN(C)c1ccc(N=Nc2nc3ccccc3n2C)cc1 |  | inconclusive: 11.7 µM [inhibitor, partial curve] |
| CCc1c(C)c2cc(Cl)c(O)c(CN(C)C)c2oc1=O |  | inconclusive: 18.5 µM [inhibitor, single point] |
| CCOC(=O)N1CCN(Cc2nc3cc(NC(=O)CC)ccc3n2C)CC1 |  | inconclusive: 18.5 µM [inhibitor, single point] |
| CCc1ccc(S(=O)(=O)Nc2cccc(-c3ccc4nnc(C)n4n3)c2)s1 |  | inconclusive: 11.7 µM [inhibitor, partial curve] |
| NNC(=O)c1cc(-c2ccccc2)sc1N |  | inconclusive: 18.5 µM [inhibitor, single point] |
| CC(C)(C)c1nc2c(s1)CCc1onc(-c3ccc(Cl)cc3)c1-2 |  | inconclusive: 4.15 µM [inhibitor, partial curve] |
| NC(=O)C1CCN(CC(O)COc2ccc(-c3ccccc3)cc2)CC1 (configuration not stated) |  | inconclusive: 0.0522 µM [inhibitor, full curve, poor fit] |
| Cc1ccc(/C=N/NC(=O)c2cccc(S(=O)(=O)N3CCOCC3)c2)o1 | inactive: -21.9% [at 5.75 µM] |  |
| CC(=O)Nc1ccc(S(=O)(=O)NCC2CCC(C(=O)NC(C)c3ccccc3)CC2)cc1 (configuration not stated) | inactive: 70.8% |  |
| COc1c2occc2c(OC)c2c(=O)cc(C(F)(F)C(F)(F)F)oc12 | inactive: -24.3% |  |
| CC(C)N(Cc1ccccc1)S(=O)(=O)c1ccc(Cl)nc1 |  | inconclusive: 3.7 µM [inhibitor, partial curve, poor fit] |
| CC1Cc2nc(SCC(=O)NC3CCCCC3)n(C)c(=O)c2S1 (configuration not stated) |  | inconclusive: 4.15 µM [inhibitor, partial curve] |
| C=CCC1NS(=O)(=O)OC(CCc2ccccc2)C1O (configuration not stated) | inactive: 9.71% |  |
| CC1(c2nnc(Cc3ccccc3)o2)CC(c2ccccc2[N+](=O)[O-])=NO1 (configuration not stated) | inactive: 76.4% |  |
| Cc1ccc(CCN2CC(C(=O)NCCCN3CCN(C)CC3)CC2=O)cc1 (configuration not stated) |  | inconclusive: 2.94 µM [inhibitor, partial curve] |
| COCCN1C(=O)Cc2c1nc(N)c1c(N)nc(N3CCN(c4ccc(F)cc4)CC3)c(C#N)c21 |  | inconclusive: 11.7 µM [inhibitor, single point] |
| C[N+]1(C)[C@@H]2CC(OC(=O)[C@H](CO)c3ccccc3)C[C@H]1[C@@H]1O[C@@H]12 (some centres not stated) | inactive: -7.57% |  |
| CCOC(=O)CC1COCCN1Cc1cn[nH]c1-c1ccc2c(c1)OCO2 (configuration not stated) | inactive: 40.3% |  |
| Cc1ccnc(NC(=O)c2cccc(S(=O)(=O)NCc3ccccc3)c2)c1 | inactive: 9.11% |  |
| CCCCC(=O)Nc1cccc(-c2csc(-c3ccccc3)n2)c1 |  | inconclusive: 18.5 µM [inhibitor, single point] |
| CCN1C(=O)/C(=C\c2cccs2)C(C(=O)OC)=C1C |  | inconclusive: 3.29 µM [inhibitor, full curve, poor fit] |
| Cn1c(Cn2cnc([N+](=O)[O-])n2)nnc1SCC(=O)Nc1ccc(Br)cc1 | inactive: 37.4% |  |

| SMILES | activity change, negative = inhibition | Potency |
| --- | --- | --- |
| CSCCC1NC(=O)N(CC(=O)N2N=C(c3ccc(Cl)cc3)CC2c2ccco2)C1=O (configuration not stated) | inactive: 9.75% |  |
| CN(CC(=O)Nc1ccccc1C(F)(F)F)C(=O)CSc1nc(N)cc(N)n1 |  | inconclusive: 18.5 µM [inhibitor, single point] |
| COc1ccc(C(CNC(=O)c2cc(F)c(F)c(F)c2F)N2CCOCC2)cc1 (configuration not stated) | inactive: -3.73% |  |
| COc1ccc(C)cc1S(=O)(=O)N1c2ccc(C)cc2C2CN(C)CCC21 (configuration not stated) |  | active: 10.4 µM |
| COCCN(Cc1ccccc1)C(=O)C1CCN(S(=O)(=O)c2ccc3c(c2)OCCO3)CC1 |  | active: 11.7 µM |
| CCN(CC)c1ccc(/C=N/Nc2ccc(C)cc2)c(O)c1 |  | inconclusive: 18.5 µM [inhibitor, single point] |
| CCOC(CN1CCN(CC(C)C(=O)c2ccccc2)CC1)c1ccccc1 (configuration not stated) |  | inconclusive: 6.75 µM [inhibitor, partial curve] |
| COc1cccc(C(=O)CC(C(=O)O)c2ccc(F)cc2)c1 (configuration not stated) | inactive: 2.67% |  |
| CCC(C)n1c(SCC(=O)NC2CCCC2)nc2ccccc2c1=O (configuration not stated) |  | inconclusive: 10.4 µM [inhibitor, single point] |
| COc1cccc(-c2nnc(N(C)C(=O)C3CCOC3)s2)c1 (configuration not stated) |  | inconclusive: 16.5 µM [inhibitor, single point] |
| CC1CC2(CCCC2)Nc2ccc(F)cc21 (configuration not stated) | inactive: 2.53% |  |
| CNC(=S)N/N=C/c1cc(C)ccc1C |  | inconclusive: 13.1 µM [inhibitor, single point] |
| Cc1cc(N2CCC(C)CC2)nc(SCC(=O)c2ccccc2)n1 |  | inconclusive: 18.5 µM [inhibitor, single point] |
| CCc1cc(C(=O)c2ccc(OC)cc2)c(NC(=O)CN2CCN(C)CC2)s1 |  | inconclusive: 10.4 µM [inhibitor, partial curve, poor fit] |
| CCOC(=O)c1c(SC)n(-c2ccccc2)c(=S)n(-c2ccccc2)c1=O |  | inconclusive: 4.65 µM [inhibitor, partial curve] |
| CCOc1ccc(C(=O)Nc2ccc(Cc3ccncc3)cc2)cc1Br |  | inconclusive: 2.33 µM [inhibitor, full curve, poor fit] |
| CC/C(=C\C(=O)c1cccnc1)Nc1ccc(C)c(C)c1 |  | inconclusive: 18.5 µM [inhibitor, single point] |
| Cc1ccccc1-n1c(C)nnc1SCC(=O)NC1CCCc2ccccc21 (configuration not stated) |  | inconclusive: 10.4 µM [inhibitor, single point] |
| Cc1cc(Oc2ccc3ccccc3c2)nc(SCC(=O)c2ccccc2)n1 |  | inconclusive: 18.5 µM [inhibitor, single point] |
| Cc1c(C(=O)N/N=C/C(C)C)[nH]c2c([N+](=O)[O-])cccc12 |  | inconclusive: 13.1 µM [inhibitor, single point] |
| CCOc1ccccc1-n1c(N)c(C(N)=O)sc1=S |  | active: 1.65 µM |
| CCOC(=O)c1ccc(NC(=O)c2nc(S(=O)(=O)Cc3ccccc3)ncc2Cl)cc1 | inactive: 1.38% |  |
| COc1ccc(N=C2SC(CC(=O)Nc3ccc(OC)cc3OC)C(=O)N2C)cc1 (configuration not stated) | inactive: 4.82% |  |
| C/C(=N\NC(=O)c1c(C)nc2ccccn12)c1ccc(C(C)(C)C)cc1 | inactive: 13.2% |  |
